This is one part of the list. The calls rarely recur for the same compound in another form.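 Kinases were expressed as nanoluciferase fusions in K562 cells and luminescence was read every 4 h between 2 and 18 h as percent of control, DMSO set to 100% and a positive control to 0%. A time point counts as decreased when the signal drops significantly (2 sigma). The hit call is the authors' own, does not follow from the count of time points alone, and its rule is not shown.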
Tests used:
Details in all cases: K562; 2-18 h
[1] = target: YES1 (UniProt P07947); assay: number of time points (of 5) at which kinase-Nluc abundance scored as decreased, DMSO-normalised (count); higher = more persistent destabilization
[2] = target: ZAK (UniProt Q9NYL2); assay: as above
[3] = target: ZAP70 (UniProt P43403); assay: as above
[4] = target: CDK4 (UniProt P11802); assay: number of time points (of 4; 2 h point missing) at which kinase-Nluc abundance scored as decreased, DMSO-normalised (count); higher = more persistent destabilization
[5] = target: CDK7 (UniProt P50613); assay: as above
[6] = target: CDK9 (UniProt P50750); assay: as above

The chains behind the UniProt entries cited, without tags or fusion partners. Where a name states a change or a piece, a line headed by the entry shows the natural chain unless it says otherwise.
UniProt P07947, whole entry, looked up: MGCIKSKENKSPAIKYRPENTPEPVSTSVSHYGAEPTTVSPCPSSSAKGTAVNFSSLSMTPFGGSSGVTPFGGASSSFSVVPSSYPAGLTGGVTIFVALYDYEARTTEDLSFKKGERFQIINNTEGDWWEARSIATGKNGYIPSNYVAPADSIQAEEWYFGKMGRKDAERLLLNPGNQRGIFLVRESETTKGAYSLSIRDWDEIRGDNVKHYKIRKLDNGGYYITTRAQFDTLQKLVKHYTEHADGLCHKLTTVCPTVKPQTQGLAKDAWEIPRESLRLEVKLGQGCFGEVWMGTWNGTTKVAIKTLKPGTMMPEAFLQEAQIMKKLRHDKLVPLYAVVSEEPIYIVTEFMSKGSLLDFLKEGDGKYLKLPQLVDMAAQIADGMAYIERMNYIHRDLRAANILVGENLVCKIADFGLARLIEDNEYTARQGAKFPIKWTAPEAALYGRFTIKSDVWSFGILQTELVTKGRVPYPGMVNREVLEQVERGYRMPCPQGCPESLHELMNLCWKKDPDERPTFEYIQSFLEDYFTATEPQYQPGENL
UniProt P43403: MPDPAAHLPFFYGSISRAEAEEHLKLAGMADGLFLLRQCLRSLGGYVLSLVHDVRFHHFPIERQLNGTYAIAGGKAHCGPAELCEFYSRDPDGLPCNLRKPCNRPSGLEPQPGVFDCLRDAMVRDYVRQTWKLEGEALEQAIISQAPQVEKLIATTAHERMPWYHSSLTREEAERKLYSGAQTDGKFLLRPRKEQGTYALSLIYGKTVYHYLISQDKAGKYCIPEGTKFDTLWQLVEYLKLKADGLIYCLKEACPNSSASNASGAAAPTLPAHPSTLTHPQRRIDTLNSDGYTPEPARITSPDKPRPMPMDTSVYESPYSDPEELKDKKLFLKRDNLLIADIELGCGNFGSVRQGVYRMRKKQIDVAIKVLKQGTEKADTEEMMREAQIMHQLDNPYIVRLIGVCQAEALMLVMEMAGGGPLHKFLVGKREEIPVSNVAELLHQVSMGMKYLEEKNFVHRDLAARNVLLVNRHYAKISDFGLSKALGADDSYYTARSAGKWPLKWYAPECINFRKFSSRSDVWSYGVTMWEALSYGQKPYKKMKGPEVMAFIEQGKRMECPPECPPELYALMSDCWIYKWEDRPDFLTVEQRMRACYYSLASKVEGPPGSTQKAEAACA
UniProt P11802: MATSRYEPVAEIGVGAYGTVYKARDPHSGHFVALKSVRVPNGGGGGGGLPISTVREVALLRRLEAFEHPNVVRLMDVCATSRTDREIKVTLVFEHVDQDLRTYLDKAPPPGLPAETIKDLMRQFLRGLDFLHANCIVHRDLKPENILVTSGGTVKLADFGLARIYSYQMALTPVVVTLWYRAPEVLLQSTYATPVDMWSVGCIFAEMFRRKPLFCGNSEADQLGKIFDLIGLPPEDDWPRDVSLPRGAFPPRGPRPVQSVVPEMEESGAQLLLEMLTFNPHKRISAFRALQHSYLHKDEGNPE
UniProt P50613: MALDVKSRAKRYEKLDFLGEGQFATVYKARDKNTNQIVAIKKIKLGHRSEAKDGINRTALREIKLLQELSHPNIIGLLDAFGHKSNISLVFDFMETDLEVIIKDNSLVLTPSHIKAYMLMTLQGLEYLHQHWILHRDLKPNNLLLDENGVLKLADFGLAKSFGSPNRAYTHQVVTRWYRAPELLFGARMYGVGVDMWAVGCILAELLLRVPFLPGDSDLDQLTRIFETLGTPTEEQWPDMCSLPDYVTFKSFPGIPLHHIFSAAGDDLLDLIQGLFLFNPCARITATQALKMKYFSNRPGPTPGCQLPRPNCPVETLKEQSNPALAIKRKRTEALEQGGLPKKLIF
UniProt P50750, whole entry: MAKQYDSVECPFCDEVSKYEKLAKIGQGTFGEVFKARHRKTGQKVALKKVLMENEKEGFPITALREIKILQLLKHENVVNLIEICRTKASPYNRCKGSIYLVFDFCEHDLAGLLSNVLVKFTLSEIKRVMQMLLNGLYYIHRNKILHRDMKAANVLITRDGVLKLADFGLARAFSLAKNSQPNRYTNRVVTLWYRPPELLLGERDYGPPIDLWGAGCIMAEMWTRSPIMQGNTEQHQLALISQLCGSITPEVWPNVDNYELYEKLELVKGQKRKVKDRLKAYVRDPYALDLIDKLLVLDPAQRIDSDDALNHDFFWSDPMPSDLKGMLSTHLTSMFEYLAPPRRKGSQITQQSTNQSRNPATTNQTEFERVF

Measured: number of time points

COc1cc2c[n+](C)c3c4cc5c(cc4ccc3c2cc1OC)OCO5 [Nitidine (chloride)] (2 µM)
0: [1] | [2] | [3] | [4] | [5] | [6]

Cc1c(CN2CCN(C(=O)[C@H](C)O)CC2)sc2c(N3CCOCC3)nc(-c3cnc(N)nc3)nc12 [Apitolisib] (10 µM)
4: [5]
3: [6]
0: [1] | [2] | [3] | [4]

COc1cc([N+](=O)[O-])ccc1S(=O)(=O)N1C[C@@H](CN2CCN(c3ccccn3)CC2)[C@H](c2cccc(F)c2)C1 (relative stereo) (10 µM)
0: [1] | [2] | [3] | [4] | [5] | [6]

COc1cc(F)c(F)c(Nc2ccc(I)cc2F)c1NS(=O)(=O)C1(C[C@H](O)CO)CC1 [Refametinib] (10 µM)
1: [5]
0: [1] | [2] | [3] | [4] | [6]

COc1cc(C(N)=O)nc(-c2cccc(C#C[C@]3(O)CCN(C)C3=O)c2)c1 (10 µM)
0: [1] | [2] | [3] | [4] | [5] | [6]

CC(C)(C)c1ccc(S(=O)(=O)Nc2ccc(-n3ccnc3)cc2)cc1 (10 µM)
0: [1] | [2] | [3] | [4] | [5] | [6]

c1cn2cc(-c3ccc4cn[nH]c4c3)nc(Nc3ccc(N4CCOCC4)cc3)c2n1 [Entospletinib] (10 µM)
0: [1] | [2] | [3] | [4] | [5] | [6]

COc1cc(N2CCN(C)CC2)ccc1Nc1ncc2c(n1)N(C1CCC1)C(=O)N(c1c(C)cccc1C)C2 (2.5 µM)
0: [1] | [2] | [3] | [4] | [5] | [6]

Cc1cc(Nc2cc(Cl)nc(Oc3ccc([N+](=O)[O-])cc3)n2)n[nH]1 [Autophinib] (2.5 µM)
0: [1] | [2] | [3] | [4] | [5] | [6]

Nc1nccc(Oc2ccc(NC(=O)c3cn(COP(=O)(O)O)cc(-c4ccc(F)cc4)c3=O)cc2F)c1Cl (10 µM)
0: [1] | [2] | [3] | [4] | [6]
3: [5]

CS(=O)(=O)c1ccc(-c2cnc(N)c(C(=O)Nc3ccccc3)n2)cc1 (10 µM)
0: [1] | [2] | [3] | [4] | [5] | [6]

O=C(NCCCNC(=O)Nc1cccc(C2=NCCN2)c1)Nc1cccc(C2=NCCN2)c1 [p32 Inhibitor M36] (10 µM)
0: [1] | [2] | [3] | [4] | [5] | [6]

C[C@@H]1C(=O)O[C@H](C)[C@H]1C[C@@H](O)[C@](C)(O)[C@H]1CC[C@@]2(O)C3=CC(=O)[C@@H]4C[C@@H](O)[C@@H](O)C[C@]4(C)[C@H]3CC[C@]12C [Cyasterone] (10 µM)
0: [1] | [2] | [3] | [4] | [5] | [6]

Cc1ccc(-c2c(C(=O)CCl)n(CCCO)c3ncnc(N)c23)cc1 (10 µM)
4: [1]
0: [2] | [3] | [4] | [5] | [6]

CCn1c(C(=O)N(C2CC2)C2CC2)cc2c3c(ncn3C)c(Nc3cc(C)n(C)n3)nc21 (10 µM)
0: [1] | [2] | [3] | [4] | [5] | [6]

COc1cc(N2CCC(N3CCN(C)CC3)CC2)ccc1Nc1ncc(Cl)c(Nc2ccccc2P(C)(C)=O)n1 [Brigatinib] (2 µM)
0: [1] | [2] | [3] | [4] | [5] | [6]

Part of the list above in order of molecular weight, smallest number first.
COc1cc(C(N)=O)nc(-c2cccc(C#C[C@]3(O)CCN(C)C3=O)c2)c1 (10 µM)
0: [1] | [2] | [3] | [4] | [5] | [6]

CS(=O)(=O)c1ccc(-c2cnc(N)c(C(=O)Nc3ccccc3)n2)cc1 (10 µM)
0: [1] | [2] | [3] | [4] | [5] | [6]

C[C@@H]1C(=O)O[C@H](C)[C@H]1C[C@@H](O)[C@](C)(O)[C@H]1CC[C@@]2(O)C3=CC(=O)[C@@H]4C[C@@H](O)[C@@H](O)C[C@]4(C)[C@H]3CC[C@]12C [Cyasterone] (10 µM)
0: [1] | [2] | [3] | [4] | [5] | [6]

Going on with the list.

c1cc2c(cc1O[C@H]1OC[C@H]3[C@@H]1CO[C@@H]3c1ccc3c(c1)OCO3)OCO2 [Sesamolin] (10 µM)
0: [1] | [2] | [3] | [4] | [5] | [6]

CC(c1ccc(-c2cnc3c(-c4ccc(S(N)(=O)=O)c5ccccc45)cnn3c2)cc1)N1CCCC1 (stereo not drawn) (2.5 µM)
0: [1] | [2] | [3] | [4] | [5] | [6]

CC(=O)c1c(C)c2cnc(Nc3ccc(N4CCN(CCCCNC(=O)COc5cccc6c5C(=O)N(C5CCC(=O)NC5=O)C6=O)CC4)cn3)nc2n(C2CCCC2)c1=O (stereo not drawn) (10 µM)
0: [1] | [2] | [3] | [4] | [5] | [6]

COc1ccc([C@H]2c3[nH]c4ccc(Cl)cc4c3CCN2C(=O)Oc2ccc(Cl)cc2)cc1 (2.5 µM)
1: [5]
0: [1] | [2] | [3] | [4] | [6]

N#Cc1c(-c2ccccc2)cc(-c2cc(Br)ccc2O)[nH]c1=O (10 µM)
0: [1] | [2] | [3] | [4] | [5] | [6]

COc1cc2ncnc(Nc3cccc(Cl)c3)c2cc1OC (10 µM)
0: [1] | [2] | [3] | [4] | [5] | [6]

Cc1ccc(-c2c(C(=O)CF)n(CCCO)c3ncnc(N)c23)cc1 (10 µM)
0: [1] | [2] | [3] | [4] | [5] | [6]

C#CCN(C)C(=O)CCNc1nc(N2CCN(C(=O)C=C)CC2)c2cc(Cl)c(-c3c(O)cccc3F)c(F)c2n1 [ARS-1323-alkyne] (2.5 µM)
0: [1] | [2] | [3] | [4] | [5] | [6]

O=C(Nc1cc(Oc2cc(F)c(NC(=O)C3(C(=O)Nc4ccc(F)cc4)CC3)cc2F)ccn1)C1CC1 [Altiratinib] (10 µM)
0: [1] | [2] | [3] | [4] | [5] | [6]

CC(C)CC1(O)CCN(C(=O)c2ccc(NS(=O)(=O)c3cccc4nccnc34)cc2)CC1 (10 µM)
0: [1] | [2] | [3] | [4] | [5] | [6]

Nc1ncnc2c1ncn2[C@@H]1O[C@H](CO)C[C@H]1O [Cordycepin] (10 µM)
0: [1] | [2] | [3] | [4] | [5] | [6]

CO[C@H]1C[C@@H]2CC[C@@H](C)[C@@](O)(O2)C(=O)C(=O)N2CCCC[C@H]2C(=O)O[C@H]([C@H](C)C[C@@H]2CC[C@@H](O)[C@H](OC)C2)CC(=O)[C@H](C)/C=C(\C)[C@@H](O)[C@@H](OC)C(=O)[C@H](C)C[C@H](C)/C=C/C=C/C=C/1C [Rapamycin] (10 µM)
0: [1] | [2] | [3] | [4] | [5] | [6]

CC(C)(C)NC(=O)c1cncn1C1CCN(c2ccc(-c3nnc(C(F)(F)F)o3)cn2)CC1 (10 µM)
0: [1] | [2] | [3] | [4] | [5] | [6]

COC1(C(=O)N2Cc3nc(Cl)nc(N[C@H](C)c4cc(N)cc(C(F)(F)F)c4)c3C2)CCOCC1 (10 µM)
0: [1] | [2] | [3] | [4] | [5] | [6]

Cc1c(CN2CCN(S(C)(=O)=O)CC2)sc2c(N3CCOCC3)nc(-c3cnc(N)nc3)nc12 (2.5 µM)
0: [1] | [2] | [3] | [4] | [5] | [6]

CCN1CCN(Cc2ccc(Nc3ncc(F)c(-c4cc(F)c5nc(CO)n(C(C)C)c5c4)n3)nc2)CC1 [Abemaciclib metabolite M20] (2 µM)
1: [5]
0: [1] | [2] | [3] | [4] | [6]

Cc1cc([C@H](C)Nc2ccccc2)c2oc(N3CCOCC3)cc(=O)c2c1 (10 µM)
0: [1] | [2] | [3] | [4] | [5] | [6]

— the supplement of paper PMC12823440, “Inhibitors supercharge kinase turnover through native proteolytic circuits” (Nature, 2025)
